# Source: PubChem BioAssay AID445 (National Center for Advancing Translational Sciences (NCATS), 2006)
# The other results are listed elsewhere or left out. These are further read-outs of the screen, such as a control signal, another cell line or another target. No call is given for them. The list favours compounds with an active or inconclusive main result. Words in brackets tell the shape of the fitted curve; partial curves, single points and poor fits give uncertain potencies.
# Experiment: IkB Signaling
# Details: ABC-DLBCL IkBa-CBG/CBR dual luciferase ratio (green luciferase fused to IkBa over red control in OCI-Ly3 lymphoma cells), 4 h
# Procedure, shortened: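 Curves were fitted separately to fusion (green), unfused (red) and ratio luminescence, then classed by r2, magnitude and activity. Cells: OCI-Ly3, 4 h compound plus doxycycline at 37C; 10 uM MG-132 defined full response.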
# [1] = measured here: IkB-luc green channel
# [2] = measured here: control luc red channel
# [3] = measured here: control luc red channel unless noted
structure (smiles),measurement,setting,value
O=C(Cc1cccs1)NC1CC(=O)N(c2ccc(F)cc2)C1 (centres undefined),AC50,[1],"31.6 µM [rising, single point]"
same,AC50,[2],"31.6 µM [rising, single point]"
COc1ccc(-c2csc3ncnc(Nc4cccc(OC)c4)c23)cc1,AC50,[3],"39.8 µM [falling, partial curve]"
CSc1cccc(NC(=O)Nc2ccccc2OCc2cc(=O)n3cc(C)ccc3n2)c1,AC50,[3],"3.16 µM [falling, full curve]"
O=C(c1cc2ccccc2oc1=O)N(Cc1ccc2c(c1)OCO2)Cc1ccco1,AC50,[3],"25.1 µM [falling, partial curve]"
CCC(=O)N1CCc2cc(Br)cc(S(=O)(=O)CCC(=O)N3CCN(c4cccc(C)c4)C(C)C3)c21 (centres undefined),AC50,[3],"5.01 µM [falling, partial curve]"
Cc1ccc2c(c1)C(c1ccc(F)cc1)N(C(=O)c1ccc(S(=O)(=O)N3CCCCC3)cc1)CC(=O)N2 (centres undefined),AC50,[3],"10 µM [falling, partial curve]"
CC1=C(C(=O)OC2CCCCCCC2)C(c2cccc(O)c2)NC(=O)N1 (centres undefined),AC50,[3],"25.1 µM [falling, partial curve]"
O=C(NCc1ccc(Cl)cc1)NCc1noc2ccccc12,AC50,[3],"1 µM [rising, full curve]"
COc1ccc(C)cc1NC(=O)C1CCCN(c2ncnc3onc(C)c23)C1 (centres undefined),AC50,[3],"15.8 µM [falling, partial curve, poor fit]"
Cc1cccc(NC(=O)CCn2cnc3ccccc3c2=O)c1,AC50,[3],"39.8 µM [rising, partial curve, poor fit]"
CCOC(=O)C1=C(CS(=O)(=O)c2ccc(F)c(C)c2)NC(=O)NC1c1ccccc1OC (centres undefined),AC50,[3],"12.6 µM [falling, partial curve]"
CCCc1nnc(NC(=O)c2nc(SCC)ncc2Cl)s1,AC50,[3],"39.8 µM [falling, single point]"
CCCCn1c(=O)n(-c2cc(OC)ccc2OC)c(=O)c2c3c(sc21)CN(C(C)=O)CC3,AC50,[3],"31.6 µM [falling, single point]"
O=C(CC1N=C2c3ccccc3N=C(SCc3ccccc3Cl)N2C1=O)NCCc1ccccc1 (centres undefined),AC50,[3],"12.6 µM [falling, partial curve]"
CCOc1ccc(-n2nc3ccc(NC(=O)c4ccc(OC)c(Cl)c4)cc3n2)cc1,AC50,[3],"39.8 µM [falling, single point]"
CCN=C(NCC)SC1CC(=O)N(c2cccc(OCC)c2)C1=O (centres undefined),AC50,[3],"10 µM [falling, partial curve]"
Cc1ccc(Nc2c(-c3ccc(C)s3)nc3ccccn23)cc1,AC50,[3],"31.6 µM [falling, single point]"
COC(=O)c1cccc(NC2=NS(=O)(=O)c3ccccc32)c1,AC50,[3],"2.51 µM [rising, partial curve]"
Cc1cc(Cl)ccc1NC(=O)Cc1ccc(NC(=O)N2CCCCc3ccccc32)cc1,AC50,[3],"25.1 µM [falling, single point]"
COc1ccc(C)cc1NC(=O)C1CCN(S(=O)(=O)c2cc(Br)cc3c2N(C(C)=O)CC3)CC1,AC50,[3],"15.8 µM [falling, single point]"
CCc1ccc(C(=O)c2cn(CC(=O)Nc3cccc(OC)c3)c3cc4c(cc3c2=O)OCO4)cc1,AC50,[3],"12.6 µM [falling, partial curve]"
CCn1c(SCc2c(F)cccc2Cl)nc(=O)c2c(C(=O)OC)cc(C3CC3)nc21,AC50,[3],"25.1 µM [falling, partial curve]"
NCCCCCCNS(=O)(=O)c1ccc2c(Cl)cccc2c1,AC50,[3],"39.8 µM [falling, partial curve, poor fit]"
CCOC(=O)c1c(C)oc2nc(C)nc(NCC3CCN(Cc4ccc(C)cc4)CC3)c12,AC50,[3],"39.8 µM [falling, single point]"
Cc1nn(C)cc1CN(C)C(=O)c1cc(-c2ccccc2)nc2ccc(Br)cc12,AC50,[3],"10 µM [falling, partial curve]"
O=C(Nc1cccc(C(F)(F)F)c1)c1cnn(-c2cccc(F)c2)c1C1CCNCC1,AC50,[3],"0.398 µM [rising, partial curve]"
CCOc1ccc(CCNC(=O)c2oc(=O)c3ccccc3c2-c2ccc(C)cc2)cc1OCC,AC50,[3],"25.1 µM [falling, single point]"
CC(C)(C)c1ccc(C(=O)NCCc2csc(-c3ccc(Cl)cc3)n2)cc1,AC50,[3],"2.51 µM [falling, full curve]"
CCOC(=O)Cn1c(=O)n(CC2CCCO2)c2nc(-c3ccccc3)nc(C(N)=O)c21 (centres undefined),AC50,[3],"25.1 µM [falling, partial curve]"
CCOC(=O)C1=C(CN2CCN(c3ccccc3OC)CC2)NC(=O)NC1c1ccccc1 (centres undefined),AC50,[3],"7.94 µM [falling, partial curve]"
O=C(CN1CCCN(Cc2ccccc2F)S1(=O)=O)Nc1ccc(F)c(Cl)c1,AC50,[3],"25.1 µM [falling, single point]"
CCc1cccc(C)c1NC(=O)Cn1nc(C)n2cccc2c1=O,AC50,[3],"0.794 µM [falling, full curve]"
COCC(C)NC(=O)CCS(=O)(=O)c1nc(-c2ccc(OC)cc2)cc(C(F)(F)F)n1 (centres undefined),AC50,[3],"7.94 µM [falling, full curve]"
Cc1cc(NC(=O)CN2C(=O)c3cccnc3Sc3ccccc32)ccc1Br,AC50,[3],"25.1 µM [falling, partial curve]"
CCc1ccccc1NC(=O)Nc1nnc(N(CC)c2ccccc2)s1,AC50,[3],"20 µM [falling, partial curve]"
CC(=O)n1cc(C2C(=O)CCCC2=O)c2ccccc21,AC50,[3],"6.31 µM [falling, partial curve]"
Cc1ccc2oc(=O)c(S(=O)(=O)c3ccc(C(C)(C)C)cc3)cc2c1,AC50,[3],"0.0158 µM [falling, full curve, poor fit]"
CN(C)c1ccc(CNC(=O)CN2CCSc3ccc(S(=O)(=O)N(C)C)cc32)cc1,AC50,[3],"39.8 µM [falling, single point]"
CCCCCn1c(=O)[nH]c2cc(C(=O)N3CCN(c4cccc(C(F)(F)F)c4)CC3)ccc2c1=O,AC50,[3],"2.51 µM [falling, full curve]"
CCN(c1ccccc1)S(=O)(=O)c1nnc(NC(=O)COc2cccc(C)c2)s1,AC50,[3],"0.01 µM [rising, full curve]"
O=C(Nc1ccc(Br)cc1)C1CCCN1S(=O)(=O)c1ccc(F)cc1 (centres undefined),AC50,[3],"25.1 µM [falling, single point]"
COc1ccc(CNC(=O)c2oc3c(c2C)-c2nn(Cc4ccc(Cl)cc4)cc2CC3)cc1,AC50,[3],"25.1 µM [falling, partial curve, poor fit]"
Cc1nnc(Sc2nc3c(c(=O)n(C)c(=O)n3C)n2Cc2ccc(Cl)cc2)s1,AC50,[3],"39.8 µM [rising, single point] [measured here: IkB-luc green channel]"
CCN(C(=O)c1cc2c(=O)oc3ccc(C)cc3c2s1)c1ccccc1C,AC50,[3],"3.98 µM [rising, partial curve]"
CCN(CC)S(=O)(=O)c1ccc2nc(NC(=O)c3cncc(Br)c3)sc2c1,AC50,[3],"6.31 µM [falling, partial curve]"
Cc1cccn2c(=O)c(C(=O)NC(C)c3ccccc3)cnc12 (centres undefined),AC50,[3],"0.0251 µM [rising, full curve, poor fit]"
Cc1ccc(OCc2nc(-c3ccc(C(=O)NCc4ccc(OC(C)C)cc4)cc3)oc2C)cc1,AC50,[3],"39.8 µM [falling, single point]"
Cc1ccc(C(=O)c2cn(Cc3ccc(Cl)cc3)c3nc(C)ccc3c2=O)cc1,AC50,[3],"20 µM [falling, partial curve, poor fit]"
COc1ccc(N2CCN(C(=O)CSc3n[nH]c(-c4ccccc4Cl)n3)CC2)cc1,AC50,[3],"3.16 µM [rising, single point]"
Cc1cc(C)cc(N2C(=O)N(Cc3cccc(F)c3)c3ccccc3S2(=O)=O)c1,AC50,[3],"3.98 µM [rising, single point]"
COc1ccc(Nc2oc(-c3ccc(COc4ccccc4C)o3)nc2C#N)cc1,AC50,[3],"12.6 µM [falling, single point]"
Cc1cc(C)c2cc(CN(Cc3nnnn3C3CCCCC3)CC3CCCO3)c(=O)[nH]c2c1 (centres undefined),AC50,[3],"31.6 µM [falling, partial curve]"
Cc1ccc(C(C)C)c(OCCSc2nc3ccccc3n2CC(O)CO)c1 (centres undefined),AC50,[3],"25.1 µM [falling, partial curve]"
CC(C)Cn1c(-c2ccc(S(=O)(=O)N3CCOCC3)cc2)csc1=Nc1cc(Cl)ccc1Cl,AC50,[3],"10 µM [falling, partial curve]"
COc1cccc(NC(=O)/C(C#N)=C/c2c(C)n(Cc3ccc(Cl)cc3)c3ccccc23)c1,AC50,[3],"1.58 µM [falling, full curve]"
C[C@@]12C(=O)OC(=O)[C@]1(C)[C@H]1CC[C@@H]2O1,AC50,[1],"6.31 µM [rising, full curve]"
same,AC50,[2],"1.58 µM [rising, partial curve]"
CCOC(=O)c1cnc(SCc2nc(N)nc(Nc3ccc(F)cc3)n2)nc1N,AC50,[3],"0.794 µM [rising, partial curve]"
CC(C)Nc1nnc(SCC(=O)Nc2ccc(F)cc2)s1,AC50,[3],"0.631 µM [falling, partial curve]"
O=C(NCc1ccco1)c1ccc2c(c1)N(Cc1ccc(Cl)cc1)C(=O)c1ccccc1S2,AC50,[3],"12.6 µM [falling, partial curve]"
O=c1cc(-c2ccncc2)oc2ccccc12,AC50,[3],"12.6 µM [falling, partial curve]"
CCOC(=O)c1c(N2C(=O)C3C4C=CC(O4)C3C2=O)sc2c1CCCC2 (centres undefined),AC50,[3],"10 µM [falling, partial curve]"
CCOC(=O)Cc1csc(NC(=O)CSc2ncnc3c2cnn3-c2ccccc2Cl)n1,AC50,[3],"12.6 µM [falling, partial curve]"

# Reformatted bar-delimited: entries from further up
structure (smiles) | measurement | setting | value
COc1ccc(C)cc1NC(=O)C1CCCN(c2ncnc3onc(C)c23)C1 (centres undefined) | AC50 | [3] | 15.8 µM [falling, partial curve, poor fit]
CCOC(=O)Cn1c(=O)n(CC2CCCO2)c2nc(-c3ccccc3)nc(C(N)=O)c21 (centres undefined) | AC50 | [3] | 25.1 µM [falling, partial curve]
Cc1cc(C)cc(N2C(=O)N(Cc3cccc(F)c3)c3ccccc3S2(=O)=O)c1 | AC50 | [3] | 3.98 µM [rising, single point]

# Rewritten with tabs: part of the list above.
structure (smiles)	measurement	setting	value
CCOC(=O)C1=C(CS(=O)(=O)c2ccc(F)c(C)c2)NC(=O)NC1c1ccccc1OC (centres undefined)	AC50	[3]	12.6 µM [falling, partial curve]
COC(=O)c1cccc(NC2=NS(=O)(=O)c3ccccc32)c1	AC50	[3]	2.51 µM [rising, partial curve]
